Test results taken from patent US20060160989A1 (COUNCIL OF SCIENTIC AND INDUSTRIAL RESEARCH, priority 2002, published 2006).
[ ]: non-standard residue; d: D form. The star is where a group is joined. ClZ = O=C(OCc1ccccc1Cl)*; Cbz = O=C(OCc1ccccc1)*; OBn = c1ccc(CO*)cc1; Sar = CNCC(=O)O

Test: peptide synthesis
Details: coupling step

In the case of Cbz-AGGD(OBn)[Sar]K(ClZ)-OBn, the step yield is reported as 35% and the “final HPLC purity” value (HPLC) is reported as 96.25%.
